PubChem BioAssay AID743121 – NCATS, 2013

Screen: 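Knock-downs that sensitise breast cancer cells to camptothecin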 (primary screen)
Cells: MDA-MB-231 cells, a human breast cancer line
Knock-down reagent: single siRNA against human genes, 20 nM siRNA (0.8 pmol per well)
Time to read-out: 120 h (drug added 48 h after transfection, read 72 h later)
Treatment: camptothecin 20 nM (about EC30) for 72 h; vehicle 0.1% DMSO in parallel plates
Detection: 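Cell viability by ATP luminescence (CellTiter-Glo) as % of non-targeting siRNA wells, and the log2 ratio of viability without drug over viability with camptothecin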
Direction: log2 vehicle/camptothecin viability: higher = stronger sensitisation to camptothecin
Active means: 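Each gene scored by redundant siRNA activity (RSA) over its individual siRNA ratios; a gene is called active at p < 0.001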
In all, the deposit lists about 26,000 reagents; below is a random part of them. 167 of all reagents (0.63%) count as active. 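Calls are per gene from RSA p-values that are not deposited; an individual active-marked siRNA can sensitise only weakly.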 The numbers tell different reagents against one gene apart. Further read-outs or replicates are left out here.

log2 vehicle/camptothecin viability, by gene symbol and reagent
SLC6A1: #1 -0.023 inactive; #2 -0.0963 inactive; #3 0.102 inactive; #4 -0.186 inactive
TMPRSS11F (transmembrane serine protease 11F): #1 -0.156 inactive; #2 0.119 inactive
GPR149 (G protein-coupled receptor 149): #1 0.152 inactive; #2 0.00464 inactive; #3 -0.342 inactive; #4 -0.00373 inactive
GNGT1 (G protein subunit gamma transducin 1): #1 -0.0726 inactive; #2 -0.0552 inactive; #3 -0.0297 inactive; #4 -0.549 inactive
DUSP3 (dual specificity phosphatase 3): #1 0.0548 inactive; #2 -0.203 inactive; #3 -0.274 inactive; #4 0.491 inactive
ICE2 (interactor of little elongation complex ELL subunit 2): #1 -0.0427 inactive; #2 -0.101 inactive; #3 -0.48 inactive; #4 0.127 inactive
MYLK (myosin light chain kinase): #1 -0.343 inactive; #2 -0.188 inactive; #3 0.025 inactive; #4 0.364 inactive
UBQLN2 (ubiquilin 2): #1 -0.167 inactive; #2 -0.168 inactive; #3 -0.176 inactive
TPX2 (TPX2 microtubule nucleation factor): #1 -0.524 inactive; #2 -0.202 inactive; #3 -0.694 inactive; #4 0.33 inactive
CDK10 (cyclin dependent kinase 10): #1 -0.417 inactive; #2 0.549 inactive; #3 -0.0209 inactive; #4 -0.524 inactive
DNAJB9 (DnaJ heat shock protein family (Hsp40) member B9): #1 -0.0345 inactive; #2 0.0655 inactive; #3 -0.442 inactive; #4 0.0668 inactive
MXI1 (MAX interactor 1, dimerization protein): #1 -0.229 inactive; #2 -0.104 inactive; #3 -0.477 inactive; #4 0.114 inactive
METTL2B (methyltransferase 2B, tRNA N3-cytidine): #1 -0.183 inactive; #2 -0.341 inactive; #3 0.669 inactive; #4 -0.055 inactive
PPP1R9A (protein phosphatase 1 regulatory subunit 9A): #1 -0.469 inactive; #2 0.0885 inactive; #3 0.126 inactive; #4 -0.075 inactive
LAMB3 (laminin subunit beta 3): #1 -0.143 inactive; #2 -0.0119 inactive; #3 0.346 inactive

Quoted from the entries so far for reference:
log2 vehicle/camptothecin viability, by gene symbol and reagent
DNAJB9 (DnaJ heat shock protein family (Hsp40) member B9): #1 -0.0345 inactive; #2 0.0655 inactive; #3 -0.442 inactive; #4 0.0668 inactive
MXI1 (MAX interactor 1, dimerization protein): #1 -0.229 inactive; #2 -0.104 inactive; #3 -0.477 inactive; #4 0.114 inactive
METTL2B (methyltransferase 2B, tRNA N3-cytidine): #1 -0.183 inactive; #2 -0.341 inactive; #3 0.669 inactive

Continued:
log2 vehicle/camptothecin viability, by gene symbol and reagent
HEYL: #1 -0.939 inactive; #2 -0.315 inactive; #3 -0.0384 inactive; #4 -0.517 inactive
PCMT1 (protein-L-isoaspartate (D-aspartate) O-methyltransferase): #1 0.296 inactive; #2 -0.524 inactive; #3 -0.0273 inactive; #4 -0.404 inactive
TSHB (thyroid stimulating hormone subunit beta): #1 -0.101 inactive; #2 -0.511 inactive; #3 -0.106 inactive; #4 -0.478 inactive
C3AR1 (complement C3a receptor 1): #1 -0.00978 inactive; #2 -0.37 inactive; #3 -0.429 inactive; #4 -0.193 inactive
TRPM3: #1 -0.0645 inactive; #2 -0.358 inactive; #3 -0.186 inactive; #4 0.321 inactive
PMCH (pro-melanin concentrating hormone): #1 0.00085 inactive; #2 0.0572 inactive; #3 -0.351 inactive; #4 -0.147 inactive
BOK (BCL2 family apoptosis regulator BOK): #1 -0.145 inactive; #2 0.0406 inactive; #3 0.144 inactive; #4 0.161 inactive
OR51E2 (olfactory receptor family 51 subfamily E member 2): #1 -0.488 inactive; #2 -0.0022 inactive; #3 -0.155 inactive
